# Structures can show the parent of a compound that is named as a salt. The list shows a part of the results. Single values are uncertain, as repeats are few or missing.
# Assays:
# Test in all cases: reduction in cell viability relative to untreated/vehicle; higher = more growth inhibition
# Settings in all cases: 200 nM; 72 h
# M229P = test system: M229P (parental melanoma line)
# M229R = test system: M229R (matched melanoma line resistant to BRAF inhibitors)
# M238P = test system: M238P (parental melanoma line)
# M238R = test system: M238R (matched melanoma line resistant to BRAF inhibitors)
# M249P = test system: M249P (parental melanoma line)
# M249R = test system: M249R (matched melanoma line resistant to BRAF inhibitors)
# UACC62P = test system: UACC62P (parental melanoma line)
# UACC62R = test system: UACC62R (matched melanoma line resistant to BRAF inhibitors)
SMILES,reduction in cell viability (M229P),reduction in cell viability (M229R),reduction in cell viability (M238P),reduction in cell viability (M238R),reduction in cell viability (M249P),reduction in cell viability (M249R),reduction in cell viability (UACC62P),reduction in cell viability (UACC62R)
CC(=O)OCC(=O)[C@@]12OC(C)(C)O[C@@H]1C[C@H]1[C@@H]3C[C@H](F)C4=CC(=O)C=C[C@]4(C)[C@@]3(F)[C@@H](O)C[C@@]12C [Fluocinonide],< 0%,< 0%,< 0%,< 0%,< 0%,< 0%,< 0%,< 0%
CCCCOc1ccc(CC(=O)NO)cc1 [Bufexamac],< 0%,< 0%,< 0%,< 0%,< 0%,< 0%,1.58%,< 0%
COc1cc2nc(N3CCN(C(=O)C4COc5ccccc5O4)CC3)nc(N)c2cc1OC (stereo unspecified) [Doxazosin mesylate],< 0%,7.3%,< 0%,< 0%,< 0%,< 0%,< 0%,< 0%
O=c1c(O)c(-c2cc(O)c(O)c(O)c2)oc2cc(O)cc(O)c12 [Myricetin],< 0%,< 0%,< 0%,< 0%,< 0%,< 0%,< 0%,< 0%
CC(C(=O)O)c1ccc2c(c1)CC(=O)c1ccccc1S2 (stereo unspecified) [Zaltoprofen],< 0%,< 0%,< 0%,< 0%,< 0%,5.9%,< 0%,< 0%
CC(C)c1nn(-c2c(Cl)cccc2Cl)c2nc(Cc3ccc(OCCO)cc3)[nH]c(=O)c12,48.9%,56.6%,82%,55.7%,89.3%,89.5%,82.5%,78.1%
NNCCc1ccccc1 [Phenelzine],< 0%,< 0%,< 0%,< 0%,< 0%,< 0%,< 0%,< 0%
NCC(=O)Nc1ccc(-n2nc(C(F)(F)F)cc2-c2ccc3c(ccc4ccccc43)c2)cc1,< 0%,< 0%,< 0%,< 0%,< 0%,< 0%,< 0%,< 0%
Cc1nc(N)ncc1-c1nc(N2CCOCC2)c2sc(C(C)(C)O)cc2n1,0.99%,4.89%,30.8%,29.5%,< 0%,1.99%,25%,< 0%
S=P(N1CC1)(N1CC1)N1CC1,< 0%,< 0%,< 0%,< 0%,0.1%,< 0%,12.2%,< 0%
C[C@H](NC(=O)/C(C#N)=C/c1cccc(Br)n1)c1ccccc1,< 0%,< 0%,< 0%,< 0%,< 0%,< 0%,< 0%,< 0%
CC(=O)[C@H]1CC[C@H]2[C@@H]3CC=C4C[C@@H](O)CC[C@]4(C)[C@H]3CC[C@]12C [Pregnenolone],< 0%,< 0%,< 0%,< 0%,< 0%,< 0%,< 0%,< 0%
O=c1c2ccccc2nc2n1CCc1c-2[nH]c2ccccc12 [Rutaecarpine],< 0%,< 0%,< 0%,< 0%,< 0%,2.83%,< 0%,< 0%
NCCS(=O)(=O)O [l-Taurine],< 0%,< 0%,< 0%,< 0%,< 0%,< 0%,< 0%,< 0%
CCn1cc(C(=O)O)c(=O)c2cc(F)c(N3CCN(C)CC3)cc21 [Pefloxacin],< 0%,< 0%,< 0%,< 0%,< 0%,< 0%,< 0%,< 0%
CC(C)C[C@H](NC(=O)[C@H](CCc1ccccc1)NC(=O)CN1CCOCC1)C(=O)N[C@@H](Cc1ccccc1)C(=O)N[C@@H](CC(C)C)C(=O)[C@@]1(C)CO1 [Carfilzomib (PR-171)],90.8%,89.2%,87.4%,88%,91.1%,96%,86.2%,84.8%
CC1(C)SCCN(S(=O)(=O)c2ccc(OCC#CCO)cc2)[C@H]1C(=O)NO [Apratastat],< 0%,< 0%,< 0%,< 0%,< 0%,< 0%,< 0%,< 0%
CCCc1nc(C(C)(C)O)c(C(=O)O)n1Cc1ccc(-c2ccccc2-c2nnn[nH]2)cc1 [Olmesartan],< 0%,< 0%,< 0%,< 0%,< 0%,< 0%,< 0%,< 0%
Cn1cc(-c2ccc3nnc(Sc4ccc5ncccc5c4)n3n2)cn1,< 0%,< 0%,< 0%,< 0%,< 0%,< 0%,< 0%,< 0%
C[C@H](NC(=O)C(=O)Nc1ccccc1C(C)(C)C)C(=O)N[C@@H](CC(=O)O)C(=O)COc1c(F)c(F)cc(F)c1F [Emricasan],< 0%,< 0%,< 0%,< 0%,< 0%,< 0%,< 0%,< 0%
O=C(/C=C/c1cccc(S(=O)(=O)Nc2ccccc2)c1)NO [Belinostat],0.03%,30.7%,8.29%,< 0%,1.08%,17.2%,6.08%,48.4%

SMILES,reduction in cell viability (M229P),reduction in cell viability (M229R),reduction in cell viability (M238P),reduction in cell viability (M238R),reduction in cell viability (M249P),reduction in cell viability (M249R),reduction in cell viability (UACC62P),reduction in cell viability (UACC62R)
COc1c(N2C[C@@H]3CCCN[C@@H]3C2)c(F)cc2c(=O)c(C(=O)O)cn(C3CC3)c12 [Moxifloxacin hydrochloride monohydrate],< 0%,< 0%,< 0%,< 0%,< 0%,< 0%,< 0%,< 0%
CC(c1cc2ccccc2s1)N(O)C(N)=O (stereo unspecified) [Zileuton],< 0%,< 0%,< 0%,< 0%,< 0%,< 0%,< 0%,< 0%
CC/C(=C(/CC)c1ccc(O)cc1)c1ccc(O)cc1 [Diethylstilbestrol],< 0%,5.07%,< 0%,< 0%,< 0%,< 0%,< 0%,< 0%
CCOC(=O)[C@@H](N)Cc1ccc(-c2cc(O[C@H](c3ccc(Cl)cc3-n3ccc(C)n3)C(F)(F)F)nc(N)n2)cc1 [Telotristat etiprate],< 0%,< 0%,< 0%,< 0%,< 0%,< 0%,1.44%,< 0%
C=C[C@H]1CN2CC[C@H]1C[C@H]2[C@H](O)c1ccnc2ccc(OC)cc12 [Quinine],< 0%,< 0%,< 0%,< 0%,< 0%,< 0%,< 0%,< 0%
CCCc1nc2c(C)cc(-c3nc4ccccc4n3C)cc2n1Cc1ccc(-c2ccccc2C(=O)O)cc1 [Telmisartan],< 0%,< 0%,< 0%,< 0%,14.4%,< 0%,26.3%,< 0%
c1nc2c(NC3CCCCC3)nc(Nc3ccc(N4CCOCC4)cc3)nc2[nH]1 [Reversine],< 0%,< 0%,7.76%,1.69%,< 0%,9.2%,< 0%,42.5%
CC(C)[C@H](C(=O)Nc1ccc(C(=O)NO)cc1)c1ccccc1,10.5%,3.54%,37.9%,3.12%,43.9%,36.5%,33.7%,72.6%
c1ccc(-c2nn3c(c2-c2ccnc4cc(OCCN5CCOCC5)ccc24)CCC3)nc1,< 0%,< 0%,< 0%,< 0%,< 0%,< 0%,< 0%,< 0%
c1ccc2c(Cc3c[nH]c4ccccc34)c[nH]c2c1 [Diindolylmethane],< 0%,< 0%,< 0%,< 0%,< 0%,8.3%,< 0%,< 0%
C[N+](C)(C)CC(=O)O [Betaine hydrochloride],< 0%,< 0%,< 0%,< 0%,< 0%,0.67%,< 0%,< 0%
CN1CC(=O)N=C1NC(=O)Nc1cccc(Cl)c1 [Fenobam],< 0%,4.88%,< 0%,< 0%,< 0%,< 0%,< 0%,< 0%
C[C@@H](O[C@H]1OCCN(Cc2n[nH]c(=O)[nH]2)[C@H]1c1ccc(F)cc1)c1cc(C(F)(F)F)cc(C(F)(F)F)c1 [Aprepitant],< 0%,< 0%,< 0%,< 0%,< 0%,< 0%,1.5%,< 0%
CCn1c(C(=O)N(C2CC2)C2CC2)cc2c3c(ncn3C)c(Nc3cc(C)n(C)n3)nc21,< 0%,< 0%,< 0%,< 0%,< 0%,3.81%,< 0%,< 0%
C=CC(=O)Nc1cc2c(Nc3ccc(F)c(Cl)c3)ncnc2cc1C#CC(C)(C)N1CCN(C)CC1,9.79%,19.9%,10.6%,5.93%,< 0%,< 0%,< 0%,2.82%
CC1=C(/C=C/C(C)=C/C=C/C(C)=C/C=C/C=C(C)/C=C/C=C(C)/C=C/C2=C(C)CCCC2(C)C)C(C)(C)CCC1 [beta-Carotene],< 0%,< 0%,< 0%,< 0%,< 0%,< 0%,< 0%,< 0%
CCCCC(F)(F)[C@@]1(O)CC[C@H]2[C@@H](CC(=O)[C@@H]2CCCCCCC(=O)O)O1 [Lubiprostone],< 0%,< 0%,< 0%,< 0%,< 0%,< 0%,< 0%,< 0%
CC(=O)Nc1sc2c(c1-c1nc3ccccc3s1)CNC2,< 0%,< 0%,< 0%,< 0%,< 0%,< 0%,< 0%,< 0%
Cc1coc2c1C(=O)C(=O)c1c-2ccc2c1CCCC2(C)C [Tanshinone IIA],< 0%,< 0%,< 0%,< 0%,< 0%,7.12%,< 0%,< 0%
CC(C)CCN1c2nc(Nc3cc(F)c(O)c(F)c3)ncc2N(C)C(=O)C1C (stereo unspecified),< 0%,< 0%,< 0%,< 0%,< 0%,< 0%,< 0%,< 0%
CCCCCCCCCCC[C@@H](C[C@@H]1OC(=O)[C@H]1CCCCCC)OC(=O)[C@H](CC(C)C)NC=O [Orlistat],< 0%,< 0%,< 0%,< 0%,< 0%,< 0%,< 0%,< 0%

# Another view of some results above:
SMILES | reduction in cell viability (M229P) | reduction in cell viability (M229R) | reduction in cell viability (M238P) | reduction in cell viability (M238R) | reduction in cell viability (M249P) | reduction in cell viability (M249R) | reduction in cell viability (UACC62P) | reduction in cell viability (UACC62R)
O=c1c(O)c(-c2cc(O)c(O)c(O)c2)oc2cc(O)cc(O)c12 [Myricetin] | < 0% | < 0% | < 0% | < 0% | < 0% | < 0% | < 0% | < 0%
NCC(=O)Nc1ccc(-n2nc(C(F)(F)F)cc2-c2ccc3c(ccc4ccccc43)c2)cc1 | < 0% | < 0% | < 0% | < 0% | < 0% | < 0% | < 0% | < 0%
C[C@H](NC(=O)/C(C#N)=C/c1cccc(Br)n1)c1ccccc1 | < 0% | < 0% | < 0% | < 0% | < 0% | < 0% | < 0% | < 0%
CC/C(=C(/CC)c1ccc(O)cc1)c1ccc(O)cc1 [Diethylstilbestrol] | < 0% | 5.07% | < 0% | < 0% | < 0% | < 0% | < 0% | < 0%
c1nc2c(NC3CCCCC3)nc(Nc3ccc(N4CCOCC4)cc3)nc2[nH]1 [Reversine] | < 0% | < 0% | 7.76% | 1.69% | < 0% | 9.2% | < 0% | 42.5%
C[N+](C)(C)CC(=O)O [Betaine hydrochloride] | < 0% | < 0% | < 0% | < 0% | < 0% | 0.67% | < 0% | < 0%
C[C@@H](O[C@H]1OCCN(Cc2n[nH]c(=O)[nH]2)[C@H]1c1ccc(F)cc1)c1cc(C(F)(F)F)cc(C(F)(F)F)c1 [Aprepitant] | < 0% | < 0% | < 0% | < 0% | < 0% | < 0% | 1.5% | < 0%
C=CC(=O)Nc1cc2c(Nc3ccc(F)c(Cl)c3)ncnc2cc1C#CC(C)(C)N1CCN(C)CC1 | 9.79% | 19.9% | 10.6% | 5.93% | < 0% | < 0% | < 0% | 2.82%
CC(=O)Nc1sc2c(c1-c1nc3ccccc3s1)CNC2 | < 0% | < 0% | < 0% | < 0% | < 0% | < 0% | < 0% | < 0%

# Reference: the supplement of paper PMC9015667
